Experimental data as given in PMC10163288.
The other results are listed elsewhere or left out.

B1: il2ra_site2_3nfp_sap_23_mot_HHH_b2_04167_af2_000000037_0001_42_55_H_._0a54d8a7266968de9ae0346ffe2baff0_0001_af2_0001_0000100003_0000001_1_0001 (protein)
chain: SSSDEEELEKVLRQIREALEEGDEELLRELLRKAAQLVWEVNDPRLYMELAELLFEIAKKLSSSS
B2: il2ra_site1_1z92_normal_mot_01209686ea234b34325f918445e6eade_0001_af2_000000154_0001_18_33_H_._d30c92881be5d2f229e465dffc40e224_0001_af2_0001_0000300015_0000001 … (protein)
chain: DVEELLEELAEEGDPDALMALKDLRQAKELGVPPRNVLKAVLRALKKNGALTPELKEILEEVLKR
B3: il2ra_site2_2erj_normal_mot_HHH_b1_07975_000000000_0001_41_57_H_._HHH_eva_0077_af2_0001_0000200020_0000001_0 (protein)
chain: SSDEEEKVEEVEEYATELARKAGVSEEYIELLQRFVELNIKNGVSAEEAKKAAEIAIEIEAKLSS
B4: il2ra_site2_3nfp_normal_mot_HHH_b2_06144_000000151_0001_41_57_H_._HHH_b1_04887_0001_0000500055_0000001_0 (protein)
chain: SSSSDEVEEISVEYAEAVLILAEEANDPELLEELYRLVEQALSKLGDPRLEEILERLEELLSSSS
B5: il2ra_site2_3nfp_normal_mot_HHH_b2_00429_000000100_0001_21_37_H_._HHH_b2_03374_0001_0000300044_0000001_0_af2pred_0001_1_af2pred_swapped (protein)
chain: SSSSNHEEFALRAALISLKLAVEAGNEELVRRLYEDAERAAKNANDPEVLEELERVFEEFHSSSS
B6: il2ra_site2_3nfp_normal_mot_0e529dd47276c7fc43eae82927e5780b_0001_af2_000000030_0001_35_48_H_._1ca096cc36b46ebbf1faa9362c3fa206_0001_1_0001_0000100002_0000001_0 … (protein)
chain: PLLELRLEALEKGDPDLRRLLFELRFLAQERGIPPEEIEELLERIQEELNVPPEEAIEILIKELK
B7: il2ra_site1_3nfp_sap_13_mot_311205a5f7018ed2e03f51fd3ffd5b95_0001_af2_000000228_0001_32_48_H_._c607dfab87a151aea9e7d1f821f406b9_0001_0001_0000200009_0000001_1_0 … (protein)
chain: SSDEFFERLVERVTKLAEEKNDEEVEELAKRALELFKEAEENRDSEAAHEAIRIVARLQLLVSSS
B8: il2ra_site2_2erj_normal_mot_HHH_b1_05749_af2_000000086_0001_23_39_H_._HHH_b2_03852_af2_0001_0000600008_0000001_0 (protein)
chain: SSSSSDEVEEEVRRLLEEARHIPDLREAYRLAVEALHIASKGNSDEALELVHKWLEEQGSSSSSS
B9: il2ra_site2_3nfp_sap_30_mot_HHH_b1_04264_000000089_0001_1_18_H_._HHH_b1_06009_0001_0000200018_0000001_0_0001_af2pred_0001_1_af2pred_swapped (protein)
chain: SSSSDEERQEVEELLKEIERALEEGDEELAEELIKRALLLAIEARDHELLLAVLRLLEKLKSSSS
B10: il2ra_site1_3nfp_sap_7_mot_HHH_b2_04441_af2_000000141_0001_1_20_H_._HHH_b2_07342_af2_0001_0000100004_0000001_1_0001_af2pred_0001_af2pred (protein)
chain: SSSSTDISRRFSELAQEVLKLLKEGDREEAEELLEELERLAREANDPAAKILVERLERALGSSSS
B11: il2ra_site1_3nfp_sap_17_mot_HHH_b1_07673_000000131_0001_39_57_H_._HHH_b1_03075_af2_0001_0000300009_0000001_0_0001_af2pred_0001_af2pred_1_swapped (protein)
chain: DERLVEELVRIAVEQNSPRLLKKILEELERFSGDPEEAKEILRELLERVLGDPEKVEELLELAEE
B12: il2ra_site1_2b5i_normal_mot_2cbe48e66a1f39b3fed734b245ab0a04_0001_000000015_0001_17_31_H_._HHH_b1_03181_0001_0000200007_0000001_0 (protein)
chain: SSSSSDEEEIREEVEELLEQAKRIEDPHENVRVLFRAAAIAWQGKNPELRELVERVAKELSSSSS
B13: il2ra_site2_2erj_sap_20_mot_HHH_b1_01197_000000128_0001_38_49_H_._HHH_b1_03800_0001_0000200005_0000001_0_0001 (protein)
chain: SSSSDEEEERIEELAEEAKRISDLHEVYELLNEMTRIASEANNQELVELVAKLFEEIAKAFSSSS
B14: il2ra_site2_2erj_normal_mot_HHH_b2_06646_af2_000000081_0001_19_36_H_._HHH_b1_01565_af2_0001_0000200025_0000001_0 (protein)
chain: SSSSDEEEEELRKFVEQLVEKFNLDEEFKRRLEESLELALEAGSSPELIRRYLELVAERVSSSSS
B15: il2ra_site2_3nfp_sap_21_mot_HHH_b1_04032_000000208_0001_43_56_H_._HHH_b1_00660_af2_0001_0000600013_0000001_0_0001 (protein)
chain: SSSSSREERLNEEAEHAIRAALERGDKERAELALKLLKAHALVANDPELERLVEELEELLNSSSS
B16: il2ra_site1_3nfp_sap_11_mot_01923d483164837742cf829bee572cc5_0001_af2_000000153_0001_17_30_H_._HHH_b2_08220_af2_0001_0000100001_0000001_1_0001 (protein)
chain: HSMIRLTKRVQRLVPPELLQLLYEIMELNARGNPEEARELIEELRELLEELGNPEAAELVEKALR
B17: il2ra_site1_3nfp_sap_17_mot_HHH_b1_01231_af2_000000170_0001_1_16_H_._HHH_b1_01666_0001_0000200012_0000001_1_0001_af2pred_0001_af2pred_1 (protein)
chain: SLLEKLQELAERTNDPELRAVIRLVENAIRISNTPPEEALELLLEDLRRAGDPEAVRIVEEVLER
B18: il2ra_site2_3nfp_sap_20_mot_HHH_b1_03818_000000217_0001_1_20_H_._HHH_b2_08227_af2_0001_0000600024_0000001_0_0001 (protein)
chain: SSSSDEEEVERLLEEAQELIRQGNPREALEALAEAAHIAFENNNSELFARIAEVLLELAKLSSSS
B19: il2ra_site2_2erj_normal_mot_ems_p1-15H-GBL-16H-GABBL-16H_0222_0001_0001_0002_000000105_0001_1_16_H_._HHH_b1_00778_0001_0000700027_0000001_0 (protein)
chain: SSSDKEEAEELYEQAKELLERGNPEEALKVLLKASQLAFESGDEELFSLLAELAHLIAREGSSSS

Target: il2ra, P01589
Assay: yeast display titration

Apparent Kd, inactive:
B1 no binding seen, B2 no binding seen, B3 no binding seen, B4 no binding seen, B5 no binding seen, B6 no binding seen, B7 no binding seen, B8 no binding seen, B9 no binding seen, B10 no binding seen, B11 no binding seen, B12 no binding seen, B13 no binding seen, B14 no binding seen, B15 no binding seen, B16 no binding seen, B17 no binding seen, B18 no binding seen, B19 no binding seen
